Where “and” joins values, the source holds several entries; their conditions need not be identical. Equal entries are not always repeated. Out of some 300,000 compounds screened, about 3,700 (1.2%) were called active. Inconclusive results, whose numbers are uncertain, are shown with a selection of clear calls. Calls come from the whole dose curve; tested in HEK293 cells. Where the call is inconclusive, the potency comes from a doubtful curve fit.
Assay: qHTS for Inhibitors of binding or entry into cells for Lassa Virus; note: nearly all actives have a fitted effect of over 50% in size
Settings: Lassa virus pseudotype entry inhibition, cell reporter; activity change, negative = inhibition: at 37.9 µM (top of the series) unless noted
% is set by controls: 0 for no effect and ±100 for the full control effect; potency is the fitted concentration of half-maximal effect.

SMILES | activity change, negative = inhibition | Potency
O=C(Nc1ccc(N2CCOCC2)cc1)C1CCN(S(=O)(=O)Cc2ccccc2)CC1 | inactive: 8.24% | –
CC(C)NCc1cccc([N+](=O)[O-])c1 | – | inconclusive: 1.26 µM [inhibitor, single point]
Cc1ccc(NC(=O)C2CCCN(S(=O)(=O)c3ccc4c(c3)CCCC(=O)N4)C2)cc1Cl (configuration not stated) | – | inconclusive: 35.5 µM [inhibitor, single point]
COc1ccc(S(=O)(=O)N(CC(=O)NC2CCCC2)c2ccccc2OC)cc1 | inactive: -1.4% | –
CCOC(=O)C1=C(NC(=S)NC(=O)c2ccccc2)c2ccccc2CC12CCCC2 | – | active: 2.59 µM
Cc1c(C(=O)Nc2ccc(-c3nnc4n3CCCCC4)cc2)oc2ccc(Br)cc12 | – | inconclusive: 10 µM [inhibitor, partial curve, poor fit]
O=C(CCn1nnc2ccccc21)OCC(=O)c1ccc(F)cc1 | inactive: 5.86% | –
COc1ccccc1-c1nnc(-c2ccc(C)cc2)o1 | – | inconclusive: 15.8 µM [inhibitor, partial curve, poor fit]
COc1ccc(-c2cc(=O)c3ccccc3n2C)cc1 | – | inconclusive: 31.6 µM [activator, single point]
COc1ccc(N(C)C(=O)c2ccc(NC(=O)CCS(=O)(=O)c3cccs3)cc2)cc1 | inactive: 5.99% | –
Oc1c(C(Nc2ccccn2)c2cccnc2)cc(Cl)c2cccnc12 (configuration not stated) | – | inconclusive: 23.1 µM [inhibitor, single point]
COc1cccc(CNc2ccccc2O)c1OCc1ccccc1F | – | inconclusive: 15.8 µM [inhibitor, single point]
COc1cc(NC(=S)NCCC(c2ccccc2)c2ccccc2)cc(OC)c1 | – | inconclusive: 22.4 µM [inhibitor, partial curve, poor fit]
CN(C)CCCNC(=S)/N=c1\sccn1Cc1ccccc1Cl | – | inconclusive: 10 µM [inhibitor, partial curve, poor fit]
Cc1cccc(C2c3[nH]c4ccccc4c3CCN2C(=O)c2cc(-c3cccn3C)n[nH]2)n1 (configuration not stated) | – | inconclusive: 25.1 µM [inhibitor, single point]
CC12CN3CC(C)(CN(C1)C3c1ccc([N+](=O)[O-])o1)C2=O (configuration not stated) | inactive: -6.4% | –
CCOc1ccc(NC(=O)CN(C)S(=O)(=O)c2ccc3[nH]c4c(c3c2)CCCC4)cc1 | – | inconclusive: 8.91 µM [inhibitor, partial curve, poor fit]
O=S(=O)(Cc1cc(Cl)nc(-c2cccnc2)n1)c1ccccc1 | – | inconclusive: 11.2 µM [inhibitor, single point]
O=C(COc1ccc(S(=O)(=O)NC2CCCCC2)cc1Cl)Nc1ccc2c(c1)OCO2 | – | inconclusive: 8.2 µM [inhibitor, partial curve]
CCc1nnc(NC(=O)c2ccc(-c3ccccc3F)o2)s1 | – | inconclusive: 14.1 µM [activator, partial curve, poor fit]
CCC(C)SCc1nc2ccccc2[nH]1 (configuration not stated) | inactive: 1.56% | –
CC(C)(C)NC(=O)C(=O)N/N=C/c1cccs1 | inactive: 7.35% | –
O=C(NCc1ccccc1F)c1ccc(S(=O)(=O)NCc2ccco2)cc1 | – | inconclusive: 2.24 µM [inhibitor, full curve, poor fit]

SMILES | activity change, negative = inhibition | Potency
COc1ccc(C)cc1NC(=O)Cc1c(C(=O)O)c(C)cn1C | inactive: 13.8% [at 46.1 µM] | –
O=[N+]([O-])C1=CC=C2C(=NC3(CCCCC3)N2O)C1=NCCc1ccccc1 | inactive: -1.31% | –
O=C(N/N=C/c1ccc(O)cc1O)c1ccc(CN2C(=O)c3cccc4cccc2c34)cc1 | – | active: 5.17 µM
COc1ccccc1/C=C/C=N/n1c(COc2ccccc2)n[nH]c1=S | – | inconclusive: 9.2 µM [inhibitor, partial curve, poor fit]
O=C(Nc1ccccc1)Nc1cc(OCC(F)(F)F)cc(OCC(F)(F)F)c1 | – | inconclusive: 18.4 µM [inhibitor, single point]
CCCC(=O)Nc1ccc2nc(SCc3ccc(C)cc3)sc2c1 | – | inconclusive: 3.16 µM [inhibitor, full curve]
CC(C)CCNC(=O)c1ccc2c(c1)nc1n2CCCCC1 | – | inconclusive: 35.5 µM [inhibitor, single point]
O=Nc1[nH]c(=O)c(/C=C(\O)c2ccccc2)nc1NO | – | inconclusive: 35.5 µM [inhibitor, single point]
Brc1cccc(/C=N\n2cnnc2)c1 | – | inconclusive: 29.1 µM [inhibitor, partial curve, poor fit]
O=C1C(NS(=O)(=O)c2ccc(Cl)cc2)=C(N2CCCCC2)C(=O)c2ccccc21 | inactive: -0.256% | –
Cc1ccc(-c2cc3nc(C)cc(NCc4ccco4)n3n2)cc1 | inactive: 39.6% [at 14.3 µM] | –
Cc1cc2nc(-c3ccc(SCc4ccccc4C#N)nc3)[nH]c2cc1C | – | inconclusive: 32.6 µM [inhibitor, single point]
Cc1ccc(C)c(S(=O)(=O)N2CCCOC2CNC(=O)C(=O)NCc2cccs2)c1 (configuration not stated) | inactive: -7.35% | –
COc1cccc(NC(=O)CCN2CCN(CCO)CC2)c1 | inactive: 5.81% [at 46.1 µM] | –
CC(C)NC(=S)N/N=C/c1ccc(C(C)(C)C)cc1 | – | inconclusive: 3.16 µM [inhibitor, partial curve, poor fit]
Cc1ccccc1OCC(=O)N/N=C/c1ccc2c(c1)OCCO2 | – | inconclusive: 32.6 µM [inhibitor, single point]
CCS(=O)(=O)N1CCN(c2ccc(C(=O)NC34CC5CC(CC(C5)C3)C4)cc2[N+](=O)[O-])CC1 | inactive: 2.48% | –
CCOC(=O)c1nc2c(=O)n(C)c(=O)n(C)c2n(C)c1=O | – | inconclusive: 8.91 µM [activator, partial curve, poor fit]
COc1ccccc1CC(=O)Nc1nc(-c2ccc(F)c(F)c2)cs1 | – | inconclusive: 0.562 µM [inhibitor, full curve, poor fit]
Cc1nc(NC(=O)c2cnccn2)ccc1Br | – | inconclusive: 20 µM [inhibitor, partial curve, poor fit]
CCC(Oc1ccc(C)cc1)C(=O)Nc1ccc2c(c1)n(C)c(=O)n2C (configuration not stated) | – | inconclusive: 11.2 µM [inhibitor, single point]
CC(=O)Nc1ccc(S(=O)(=O)N(Cc2ccccc2)Cc2ccccc2)cc1 | – | inconclusive: 8.91 µM [inhibitor, partial curve, poor fit]
O=C(Nc1cccc2ccccc12)N1CC=C(c2ccccc2)CC1 | inactive: -0.0724% | –

SMILES | activity change, negative = inhibition | Potency
CCOC(=O)c1ccc(NC(=O)c2c(NCc3cc(OC)ccc3OC)sc3c2CCC3)cc1 | inactive: 28.2% [at 46.1 µM] | –
CCc1cnc2c(c1SCCC(C)C)c(=O)n(C)c(=O)n2C | – | inconclusive: 31.6 µM [inhibitor, partial curve, poor fit]
Cc1cc(C)c(C#N)c(SCc2nnc(-c3ccccc3[N+](=O)[O-])o2)n1 | – | inconclusive: 14.1 µM [inhibitor, single point]
Nc1nnc(Cc2ccc(Cl)cc2)s1 | – | inconclusive: 1.41 µM [inhibitor, partial curve, poor fit]
C/C(=N\NC(=O)COc1ccccc1[N+](=O)[O-])c1cccc(NC(=O)c2ccncc2)c1 | – | inconclusive: 17.8 µM [inhibitor, single point]
CCc1cccc(N2C(=O)N(Cc3c(F)cccc3Cl)c3ccccc3S2(=O)=O)c1 | inactive: -12.6% [at 46.1 µM] | –
CCCCc1nnc(NC(=O)Cc2ccc(OC)c(S(=O)(=O)N3CCOCC3)c2)s1 | inactive: 12% | –
CCOc1ccc(NC(=O)c2ccc(-c3csc(C)n3)cc2)cc1 | inactive: 5.26% | –
CC(=O)[C@H]1CC[C@H]2[C@@H]3CCC4=CC(=O)CC[C@]4(C)[C@H]3CC[C@]12C | – | inconclusive: 29.1 µM [inhibitor, single point] and inconclusive: 8.2 µM [inhibitor, partial curve]
CC(C)(C)c1cc(N)on1 | – | inconclusive: 5.62 µM [activator, full curve, poor fit]
Cc1cccc(OCC(=O)Nc2ccccc2C(=O)OCc2cc(=O)n3nc(C4CC4)sc3n2)c1 | – | inconclusive: 7.08 µM [activator, full curve, poor fit]
CC(=O)O/N=C1\C(=O)N(Cc2ccc(C)cc2)c2ccccc21 | – | inconclusive: 20 µM [inhibitor, partial curve, poor fit]
CCOCCCNC(=O)C(c1ccccc1)N(Cc1cccs1)C(=O)c1ccccc1O (configuration not stated) | – | inconclusive: 25.1 µM [inhibitor, single point]
Cc1cccc(-n2cnc3cc(C(=O)NC4CCCCCC4)ccc32)c1 | – | inconclusive: 1.78 µM [inhibitor, full curve, poor fit]
COc1ccc2oc(C(=O)OC(C)C(=O)N3C(C)CCCC3C)c(C)c2c1 (configuration not stated) | – | inconclusive: 35.5 µM [inhibitor, single point]
CCOCCn1c(N2CCN(c3ccccc3)CC2)nc2c1c(=O)[nH]c(=O)n2C | – | inconclusive: 7.08 µM [inhibitor, partial curve, poor fit]
COc1cccc(CNc2ccc3[nH]c(=O)[nH]c3c2)c1OCc1ccc(F)cc1 | inactive: -9.53% [at 46.1 µM] | –
COc1ccc2c(CC(=O)Nc3ccc(OC)c(NS(=O)(=O)c4ccc(F)cc4)c3)coc2c1 | – | inconclusive: 35.5 µM [inhibitor, single point]
COc1ccc(C)cc1NC(=O)CN1CCN(S(=O)(=O)c2ccc(Br)cc2)CC1 | – | inconclusive: 20 µM [inhibitor, partial curve, poor fit]
Cc1oc2c(cc(NS(=O)(=O)c3ccc(F)cc3)c3ccccc32)c1C(=O)OCc1ccccc1 | inactive: 5.38% [at 46.1 µM] | –
COc1ccc(/C=C(/NC(=O)/C=C/c2ccccc2)C(=O)N2CCOCC2)cc1 | – | inconclusive: 4.61 µM [inhibitor, full curve, poor fit]

Exported in markdown: entries from further up

| SMILES | activity change, negative = inhibition | Potency |
| --- | --- | --- |
| Nc1nnc(Cc2ccc(Cl)cc2)s1 | – | inconclusive: 1.41 µM [inhibitor, partial curve, poor fit] |
| C/C(=N\NC(=O)COc1ccccc1[N+](=O)[O-])c1cccc(NC(=O)c2ccncc2)c1 | – | inconclusive: 17.8 µM [inhibitor, single point] |
| CCc1cccc(N2C(=O)N(Cc3c(F)cccc3Cl)c3ccccc3S2(=O)=O)c1 | inactive: -12.6% [at 46.1 µM] | – |
| CCCCc1nnc(NC(=O)Cc2ccc(OC)c(S(=O)(=O)N3CCOCC3)c2)s1 | inactive: 12% | – |
| CCOc1ccc(NC(=O)c2ccc(-c3csc(C)n3)cc2)cc1 | inactive: 5.26% | – |
| CC(=O)[C@H]1CC[C@H]2[C@@H]3CCC4=CC(=O)CC[C@]4(C)[C@H]3CC[C@]12C | – | inconclusive: 29.1 µM [inhibitor, single point] and inconclusive: 8.2 µM [inhibitor, partial curve] |
| CC(C)(C)c1cc(N)on1 | – | inconclusive: 5.62 µM [activator, full curve, poor fit] |
| Cc1cccc(OCC(=O)Nc2ccccc2C(=O)OCc2cc(=O)n3nc(C4CC4)sc3n2)c1 | – | inconclusive: 7.08 µM [activator, full curve, poor fit] |
| CC(=O)O/N=C1\C(=O)N(Cc2ccc(C)cc2)c2ccccc21 | – | inconclusive: 20 µM [inhibitor, partial curve, poor fit] |
| CCOCCCNC(=O)C(c1ccccc1)N(Cc1cccs1)C(=O)c1ccccc1O (configuration not stated) | – | inconclusive: 25.1 µM [inhibitor, single point] |
| Cc1cccc(-n2cnc3cc(C(=O)NC4CCCCCC4)ccc32)c1 | – | inconclusive: 1.78 µM [inhibitor, full curve, poor fit] |
| COc1ccc2oc(C(=O)OC(C)C(=O)N3C(C)CCCC3C)c(C)c2c1 (configuration not stated) | – | inconclusive: 35.5 µM [inhibitor, single point] |
| CCOCCn1c(N2CCN(c3ccccc3)CC2)nc2c1c(=O)[nH]c(=O)n2C | – | inconclusive: 7.08 µM [inhibitor, partial curve, poor fit] |

Reference: PubChem BioAssay AID540256 (National Center for Advancing Translational Sciences (NCATS), 2011)
